Laboratory results taken from PubChem BioAssay AID504834 (National Center for Advancing Translational Sciences (NCATS), 2011).
In all, about 320,000 compounds went through this assay and about 22,000 (6.9%) were called active. Inconclusive results, whose numbers are uncertain, are shown with a selection of clear calls. The call rests on the fitted dose curve; in most records, active means well fitted inhibition curve with a large enough effect; inconclusive means small, poorly fitted or top-dose-only effect, or another doubt; inactive means no such curve, though single readings can be large or run the other way. A potency beside an inconclusive call is a rough fit, not a confirmed value.

Assay: Primary qHTS for delayed death inhibitors of the malarial parasite plastid, 96 hour incubation
Conditions: P. falciparum luciferase reporter growth; series mostly up to 28.7 µM
Method in brief: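 Cell-based qHTS: luciferase-tagged P. falciparum in erythrocytes (2% hematocrit, 0.05% parasitemia final) incubated with compounds for 96 hours, 37 C, 5% CO2; luciferase detection reagent then added and luminescence measured.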
Potency means the concentration at half of the fitted maximal effect.

Row | SMILES | Potency
1 | C=CCn1cccc(C(=O)Nc2cc(OC)cc(OC)c2)c1=O | inactive
2 | O=C(N/N=C/c1ccccn1)c1cccc(S(=O)(=O)N2CCCC2)c1 | inactive
3 | CCOc1ccccc1NC(=O)c1cc2ccccc2oc1=O | inconclusive: 10.4 µM [inhibitor, single point]
4 | O=C(NC1CCCC1)c1cnc2n(c1=O)CCS2 | inconclusive: 0.522 µM [inhibitor, full curve, poor fit]
5 | C[C@H](NC(=O)c1[nH]cnc1C(=O)Nc1nccs1)c1ccccc1 | inconclusive: 1.47 µM [inhibitor, full curve, poor fit]
6 | COC(=O)[C@@H]1C[C@@]2(O)[C@H](O)[C@H](O)[C@H](O)C[C@H]2N1Cc1ccc(C(F)(F)F)cc1 | inconclusive: 7.38 µM [inhibitor, partial curve, poor fit]
7 | O=C(Cc1ccc(-n2cccc2)cc1)NCc1cccs1 | inconclusive: 1.04 µM [inhibitor, partial curve, poor fit]
8 | Cc1ccsc1C(=O)OC1CCOC1=O (stereo not given) | inconclusive: 6.57 µM [inhibitor, partial curve, poor fit]
9 | CC(Oc1ccc(F)cc1)C(=O)Nc1cccc(-c2nn[nH]n2)c1 (stereo not given) | inactive
10 | Cc1ccc(S(=O)(=O)NCCCCCC(=O)Nc2cccc(C)c2)cc1 | active: 11.7 µM
11 | Cc1cc(SCC(=O)Nc2ccccc2)n2ncc(-c3ccccc3)c2n1 | inconclusive: 18.5 µM [inhibitor, single point]
12 | O=C(NCc1ccccn1)/C(=N/O)c1ccccc1 | inconclusive: 20.8 µM [inhibitor, single point]
13 | COCCn1nnnc1C(C(C)C)N(Cc1cccnc1)Cc1cc2cc(OC)ccc2[nH]c1=O (stereo not given) | inactive
14 | COc1cc2c(=O)n(CC3CCCO3)c(=O)n(CC(=O)Nc3cccc(Cl)c3)c2cc1OC (stereo not given) | inactive
15 | Fc1cc(F)c(F)c(SCCc2ccncc2)c1F | inconclusive: 10.4 µM [inhibitor, single point]
16 | O=C(NC(=S)Nc1cccc(S(=O)(=O)NC2=NCCC2)c1)c1cc(-c2ccco2)nc2ccccc12 | inconclusive: 13.1 µM [inhibitor, single point]
17 | Cc1ccc(NC(=O)CSc2ncn[nH]2)cc1 | inactive
18 | Cn1c(=O)[nH]c(=O)c2c1nc(N1CCCC1)n2CC(O)COc1ccccc1 (stereo not given) | inconclusive: 18.5 µM [inhibitor, single point]
19 | CC(C)=NOC(=O)c1ccc(-c2ccccc2)cc1 | inconclusive: 14.7 µM [inhibitor, partial curve, poor fit]
20 | COc1ccc(-n2nc(C)c3c(=O)c4c([nH]c32)CCCC4)cc1 | inconclusive: 13.1 µM [inhibitor, single point]
21 | CCCc1cc(=O)oc2c3c(cc(OCC(=O)NCc4ccncc4)c12)OC(C)(C)CC3 | inconclusive: 18.5 µM [inhibitor, single point]
22 | CN(C)S(=O)(=O)c1ccc(N2CCCC2)c(C(=O)Nc2ccccc2Br)c1 | active: 14.7 µM
23 | Cc1ccc(-n2c(SCC(=O)NCCN3C(=O)CSC3=O)nnc2-c2ccccc2)cc1 | active: 14.7 µM

In another format: three of the compounds above.

| Row | SMILES | Potency |
| --- | --- | --- |
| 7 | O=C(Cc1ccc(-n2cccc2)cc1)NCc1cccs1 | inconclusive: 1.04 µM [inhibitor, partial curve, poor fit] |
| 8 | Cc1ccsc1C(=O)OC1CCOC1=O (stereo not given) | inconclusive: 6.57 µM [inhibitor, partial curve, poor fit] |
| 9 | CC(Oc1ccc(F)cc1)C(=O)Nc1cccc(-c2nn[nH]n2)c1 (stereo not given) | inactive |

Next part.

Row | SMILES | Potency
24 | O=C(NCc1ccccc1)C(c1ccccc1F)N(C(=O)c1csnn1)C1CCCC1 (stereo not given) | inconclusive: 23.3 µM [inhibitor, partial curve, poor fit]
25 | O=C1CCC([N+](=O)[O-])C(c2cccc([N+](=O)[O-])c2)N1 (stereo not given) | inconclusive: 11.7 µM [inhibitor, single point]
26 | O=C(NCc1ccccn1)Nc1cccc([N+](=O)[O-])c1 | inconclusive: 18.5 µM [inhibitor, partial curve, poor fit]
27 | NCC/C=C1/c2ccccc2CSc2ccccc21 | inconclusive: 14.7 µM [inhibitor, partial curve, poor fit]
28 | COc1cc(/C=C/C(=O)OCC(=O)NCc2cccs2)ccc1OC(F)F | inconclusive: 9.28 µM [inhibitor, single point]
29 | Cc1ccc(SCc2cc(=O)c3c(=O)n(-c4ccccc4)[nH]c3[nH]2)cc1 | active: 9.28 µM
30 | CC1CC(C)CN(c2ccc([N+](=O)[O-])nc2)C1 (stereo not given) | inconclusive: 0.465 µM [inhibitor, full curve, poor fit]
31 | O=C(NCCc1ccccc1)c1oc2ccccc2c1COc1ccccc1 | active: 13.1 µM
32 | COc1ccc(CN(C)CC(=O)Nc2ccc(SC(F)F)cc2)cc1OC | inconclusive: 18.5 µM [inhibitor, single point]
33 | CC1=C(C(=O)Nc2nc3ccccc3s2)C(c2ccco2)C(C#N)=C(SCC(=O)NC2CCCCC2)N1 (stereo not given) | inconclusive: 18.5 µM [inhibitor, single point]
34 | CCN(CC)c1ccc(/C=N/Nc2nc(C)cc(=O)[nH]2)c(O)c1 | active: 1.85 µM
35 | Cc1ccc(C2CC2c2n[nH]c(=S)n2-c2cccc(C)c2)cc1 (stereo not given) | inconclusive: 10.4 µM [inhibitor, single point]
36 | Cn1c(=O)c2cn(-c3ccc4c(c3)OCCO4)cc2n(C)c1=O | inconclusive: 18.5 µM [inhibitor, single point]
37 | Cc1ccc(NC(=S)NNC(=O)C2CC2c2ccc(C)cc2)cc1 (stereo not given) | inconclusive: 18.5 µM [inhibitor, single point]
38 | CN(C(=O)c1ccc(N2CCCCC2)c([N+](=O)[O-])c1)C1(C)CCS(=O)(=O)C1 (stereo not given) | inactive
39 | CN1CCN(c2sc(S(C)(=O)=O)nc2S(=O)(=O)c2ccc(Cl)cc2)CC1 | active: 11.7 µM
40 | O=C(O)CCCC(=O)N1N=C(c2ccccc2)CC1c1ccc2nccnc2c1 (stereo not given) | active: 3.7 µM
41 | Cc1cc(SCC(=O)NC(=O)NCc2ccco2)nc2ccccc12 | inactive
42 | Cc1cc(C(=O)NNC(=O)c2ccc(S(=O)(=O)N(C)C)cc2)c(C)o1 | inactive
43 | COc1ccc(C)cc1Nc1nc(-c2c[nH]c3ccccc23)cs1 | active: 2.08 µM
44 | CCOC(=O)CC1CCCCN1C(=O)c1cc(COc2cccc3cnccc23)on1 (stereo not given) | inactive
45 | Cc1onc(-c2c(F)cccc2Cl)c1C(=O)Nc1nnc(-c2ccccc2)s1 | inconclusive: 18.5 µM [inhibitor, single point]
